Source: publication doi:10.1101/2023.06.30.547196
No constants are given. Whether binding was seen depends on the method and setting. In cells and extracts the contact can be indirect. Binding can be weak; no strength is given.

Protein sequences, listed by entry. Tags and fused reporters are not part of them. Lines headed by an entry give the natural chain unless they say otherwise; changes in a name come on top.
UniProt Q8NCF5: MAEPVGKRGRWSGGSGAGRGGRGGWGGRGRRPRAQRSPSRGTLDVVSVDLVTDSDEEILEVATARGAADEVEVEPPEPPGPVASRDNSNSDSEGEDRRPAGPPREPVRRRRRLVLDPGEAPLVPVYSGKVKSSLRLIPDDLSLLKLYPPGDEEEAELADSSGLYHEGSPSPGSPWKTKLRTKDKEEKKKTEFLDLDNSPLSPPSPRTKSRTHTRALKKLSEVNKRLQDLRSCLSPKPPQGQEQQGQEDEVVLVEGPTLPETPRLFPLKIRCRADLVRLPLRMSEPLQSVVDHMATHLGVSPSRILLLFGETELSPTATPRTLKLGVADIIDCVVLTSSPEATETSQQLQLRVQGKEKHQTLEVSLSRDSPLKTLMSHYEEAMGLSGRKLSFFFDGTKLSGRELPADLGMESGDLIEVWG
UniProt Q8IY18: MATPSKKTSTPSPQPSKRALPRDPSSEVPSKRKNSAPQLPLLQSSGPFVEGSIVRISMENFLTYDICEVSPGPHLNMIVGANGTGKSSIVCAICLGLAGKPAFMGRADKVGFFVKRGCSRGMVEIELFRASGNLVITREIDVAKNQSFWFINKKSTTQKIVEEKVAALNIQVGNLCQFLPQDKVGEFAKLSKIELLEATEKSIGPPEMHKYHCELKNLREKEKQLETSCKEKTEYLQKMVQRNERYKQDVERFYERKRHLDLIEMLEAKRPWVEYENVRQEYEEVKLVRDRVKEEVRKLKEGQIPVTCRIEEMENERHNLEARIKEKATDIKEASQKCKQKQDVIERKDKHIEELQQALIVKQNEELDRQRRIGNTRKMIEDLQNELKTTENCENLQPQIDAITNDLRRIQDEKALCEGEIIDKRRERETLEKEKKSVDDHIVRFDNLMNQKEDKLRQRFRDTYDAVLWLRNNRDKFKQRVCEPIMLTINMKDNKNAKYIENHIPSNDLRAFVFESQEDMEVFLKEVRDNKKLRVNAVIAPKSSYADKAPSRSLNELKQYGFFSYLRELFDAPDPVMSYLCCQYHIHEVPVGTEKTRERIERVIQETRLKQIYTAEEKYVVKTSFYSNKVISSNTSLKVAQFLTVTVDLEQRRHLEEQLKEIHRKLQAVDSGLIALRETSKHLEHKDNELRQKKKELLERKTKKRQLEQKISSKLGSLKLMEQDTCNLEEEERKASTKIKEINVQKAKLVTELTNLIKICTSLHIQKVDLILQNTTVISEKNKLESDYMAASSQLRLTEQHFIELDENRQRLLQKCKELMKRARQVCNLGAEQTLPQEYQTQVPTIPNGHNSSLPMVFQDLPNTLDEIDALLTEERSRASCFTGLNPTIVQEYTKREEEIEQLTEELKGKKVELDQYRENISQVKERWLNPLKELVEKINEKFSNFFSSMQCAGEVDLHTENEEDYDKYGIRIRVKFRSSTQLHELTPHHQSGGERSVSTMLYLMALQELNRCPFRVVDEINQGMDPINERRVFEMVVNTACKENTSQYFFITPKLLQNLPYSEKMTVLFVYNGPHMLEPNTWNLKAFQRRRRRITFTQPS

Target: Flag-tagged NFATC2IP ΔSLD2 (human) (UniProt Q8NCF5)
Experiment: co-IP

- binding: binds
Substance: endogenous SMC5 (from UniProt Q8IY18 1-1101)
